# PubChem BioAssay AID2685 (National Center for Advancing Translational Sciences (NCATS), 2010)
# About 2,100 (0.66%) of roughly 320,000 compounds were called active. Inconclusive means that the source gave no clear call. Such entries were picked first, then a sample of the others. The call rests on the fitted dose curve; in most records, active means well fitted inhibition curve with a large enough effect in the signal ratio, with a control signal flat (not every such curve was filed as active); inconclusive means small, poorly fitted or top-dose-only effect, or effect the other way, or a change in a side signal; inactive means flat fitted curve, though single readings scatter; the % refers to the signal ratio. Potencies of inconclusive entries are doubtful fits and often do not repeat.
# Assay: qHTS Assay for Lipid Storage Modulators in Drosophila S3 Cells
# Conditions: BODIPY lipid droplet fluorescence, 18-24 h, cells fed with added oleic acid; lipid storage change, negative = inhibition: at 46.1 µM (top of the series) unless noted
# How it was run: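 Drosophila S3 cells loaded with oleic acid (400 uM, as added) and compounds at several concentrations; lipid droplets imaged by 488-nm laser-scanning cytometry, 500–530 nm intensity and object ratio to cell channel. Percent activity normalized to 20 uM Triacsin C.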
# On the % scale 0 is the no-effect control and ±100 the full control effect; potency means the concentration at half of the fitted maximal effect.
SMILES,"lipid storage change, negative = inhibition",Potency
CN(C)C(=O)c1cc(Br)ccc1Cl,inconclusive: -23.4%,
O=C(Nc1nncs1)c1ccc(N2C(=O)C3C4C=CC(C4)C3C2=O)cc1 (stereo not given),,"inconclusive: 0.13 µM [cytotoxic, full curve, poor fit]"
CN(C)c1ccc(/C=N/NC(N)=S)cc1[N+](=O)[O-],inconclusive: 17.1%,
COc1ccc(-n2c(C)nc3sc4c(c3c2=O)CCCC4)cc1,inconclusive: 33.4%,
N=c1c(C(=O)NC2CCCCC2)cc2c(=O)n3ccccc3nc2n1Cc1ccco1,inconclusive: -89%,
O=S(=O)(NCc1ccco1)c1ccc(Cl)nc1,inconclusive: -0.821%,
O=C(CCS(=O)(=O)c1cc2c(cc1Cl)NC(=O)CO2)NCCc1ccccc1,,"inconclusive: 29.1 µM [activator, single point]"
COc1ccc2c(c1)Cc1sc(NC(=O)c3cccnc3)nc1-2,,"inconclusive: 0.58 µM [activator, full curve]"
CC(=O)Nc1ccc(NC(=O)C2CCN(C(=O)c3ccc([N+](=O)[O-])cc3)CC2)cc1,inconclusive: 13.2%,
O=C1CC(c2ccccc2)Oc2cc(O)cc(O)c21 (stereo not given),inconclusive: 1.53%,
CCOC(=O)c1cnc(-c2ccccc2)nc1C(F)(F)F,inconclusive: -8.9%,
CC(=O)N1CCN(C(=O)c2ccc(-c3ccccc3Cl)o2)CC1,inconclusive: 23.9%,
N=C1/C(=C\c2ccc(OC(=O)c3ccccc3)cc2)C(=O)N=C2SC(N3CCOCC3)=NN12,inconclusive: -6.97%,
Cc1ccc(S(=O)(=O)N2CCN(C(=O)c3c(-c4ccccc4)noc3C)CC2)cc1,,"inconclusive: 0.116 µM [activator, single point]"
Nc1nnc(CC(=O)N2CCCCC2)s1,inconclusive: -11.9%,
Cc1cc(C)cc(NS(=O)(=O)c2ccc3[nH]c(=O)[nH]c3c2)c1,inconclusive: -21.3%,
O=C(O)CSC1=NC(=Nc2cccc(Cl)c2)C2(CCCCC2)N1c1ccccc1,inconclusive: 4.59%,
Cc1cc(C(=O)NNC(=S)Nc2ccccc2C)cs1,,"inconclusive: 5.8 µM [rising, partial curve]"
CCn1nnnc1SCC(=O)N(C)C1CCS(=O)(=O)C1 (stereo not given),inconclusive: -1.02%,
CC(C)=CCN1CCN(Cc2cccc3c2OCO3)CC1CCO (stereo not given),inconclusive: 17.1%,
CC1CN(C(=O)CS(=O)(=O)Cc2ccccc2)CC(C)O1 (stereo not given),inconclusive: -96.8%,
O=C(Nc1nc2n(n1)C(c1ccccc1)C=C(c1ccccc1)N2)c1ccco1 (stereo not given),,"inconclusive: 23.1 µM [activator, single point]"
Cc1ccc(NC(=O)CN(C)C(=O)Cn2ccsc2=N)cc1,inconclusive: 24.7%,
CCN(CC)S(=O)(=O)c1ccc(NN)nc1,,"inconclusive: 0.092 µM [activator, full curve, poor fit]"
COc1ccccc1NNC(=O)C(O)(c1ccccc1)c1ccccc1,inconclusive: -6.78%,

SMILES,"lipid storage change, negative = inhibition",Potency
CCc1ccc(NC(=O)C2CCCN(S(C)(=O)=O)C2)cc1 (stereo not given),,"inconclusive: 29.1 µM [falling, single point]"
CC(=O)c1ccc(S(=O)(=O)NC2CC2)cc1,,"inconclusive: 29.1 µM [activator, single point]"
N#CCSc1nnc(-c2ccccc2)c(-c2ccccc2)n1,inconclusive: -4.7%,
N#CCc1nn(-c2ccc(F)cc2)c(N)c1C#N,inconclusive: 49.1%,
CCOc1ccc(C(=O)Nc2ccc(CN3CCOCC3)cc2)cc1Cl,inconclusive: 144%,
Cc1ccc2cc(C)c3nnc(SCC(=O)c4cccs4)n3c2c1C,inconclusive: 32.1%,
COc1ccc(C(=O)/C=C2/c3ccccc3CC(C)(C)N2C)cc1OC,inconclusive: 21.6%,
COc1ccc(NS(=O)(=O)c2ccc3c(c2)CCCN3C(C)=O)cc1,,"inconclusive: 20.6 µM [activator, single point]"
O=C(Cc1ccccc1)N/N=C/c1cc2c(cc1Cl)OCO2,,"inconclusive: 1.64 µM [activator, full curve, poor fit]"
O=C(NNS(=O)(=O)c1ccc(F)cc1)C1CCN(S(=O)(=O)c2ccccc2)CC1,inconclusive: -2.57%,
COCCN=C1Sc2nc3cc(C)c(C)cc3cc2CN1Cc1cccs1,inconclusive: 44.6%,
CCc1ccccc1NC(=O)[C@@H]1CCC(=O)N1C1OC(=O)c2c1ccc(OC)c2OC (stereo not given in full),inconclusive: 0.123%,
O=C(CS(=O)(=O)c1ccc(Cl)cc1)NCc1ccccc1,,"inconclusive: 16.4 µM [activator, partial curve]"
COC(=O)Cc1ccc(NC(=S)N2CCN(c3cccc(O)c3)CC2)cc1,,"inconclusive: 16.4 µM [falling, single point]"
O=C(NN1C(=O)C2C3C=CC(C4CC34)C2C1=O)c1cccc(Cl)c1 (stereo not given),inconclusive: 23.2%,
OCCCN1CCN(CCOc2ccccc2-c2ccccc2)CC1,inconclusive: -1.39%,
CCCCc1cc(=O)oc2cc(OCC(=O)NCCN3CCOCC3)ccc12,,"inconclusive: 6.51 µM [activator, single point]"
O=C(Nc1nccs1)c1ccc(-c2ccc(Cl)cc2)o1,inconclusive: -21.1%,
CCOC(=O)c1ccc(NC(=O)Cn2c(=O)oc3ccccc32)cc1,inactive,
O=C(CN1CCN(S(=O)(=O)c2ccc(Br)cc2)CC1)Nc1ccccc1F,,"inconclusive: 2.31 µM [activator, full curve]"
CC(C)c1ccc(C(=O)NNC(=O)c2ccncc2)cc1,,"inconclusive: 29.1 µM [activator, single point]"
CCn1c(=O)cc(C(F)(F)F)[nH]c1=S,inconclusive: 6.26%,
O=C1c2ccccc2NC(c2ccc([N+](=O)[O-])cc2)N1O (stereo not given),,"inconclusive: 0.13 µM [falling, full curve, poor fit]"
COc1cc(C)nc(Oc2ccc(=O)[nH]n2)n1,,"inconclusive: 5.17 µM [falling, single point]"
CCCn1c(=O)[nH]c(=O)c2c1nc(-c1ccc3c(c1)OCCO3)n2CCN1CCOCC1,inconclusive: 12.2%,

# 4 compounds picked at random from those above, as already listed:
SMILES,"lipid storage change, negative = inhibition",Potency
COc1ccc(NS(=O)(=O)c2ccc3c(c2)CCCN3C(C)=O)cc1,,"inconclusive: 20.6 µM [activator, single point]"
O=C(NN1C(=O)C2C3C=CC(C4CC34)C2C1=O)c1cccc(Cl)c1 (stereo not given),inconclusive: 23.2%,
OCCCN1CCN(CCOc2ccccc2-c2ccccc2)CC1,inconclusive: -1.39%,
CCc1ccccc1NC(=O)[C@@H]1CCC(=O)N1C1OC(=O)c2c1ccc(OC)c2OC (stereo not given in full),inconclusive: 0.123%,
